US8709981B2, “Isolated Australian coral reef fluorescent proteins and cell-based kinase or phosphatase platforms for cancer drug development” (priority 2009, dated 2014)

Test system: HEK-293 cells
Assay: Expression in mammalian cells
Assay type: cell-based

B1: PhosFluor: fluorescent protein having the amino acid sequence set forth in SEQ ID NO: 10, isolated from Scleractinia (protein)
chain: MSAHIKPNMKIKLRMEGDVNGHPFVITGEGSGKPYEGTHAIDLKVKEGGPLPFAYDILTAAFQYGNRAFTKYPADIPDYFKQSFPDGYCWERSMVFEDQGICVVKSVISLDKKEPDCFNYDIRFYGVNFPATGPVMKKKTVKWEPSTQTMYERDGVLVGDVNMALLLEGGGHHRCDFKSTYRAKGVVLNMPGNHYVDHRIEIIHHDKGYNSVTVHESAEARHCSLPSKAK
modifications: Scleractinia sp
- stable expression in HEK-293 cells (cells selected for stable transfection, 3 weeks later): still stably expressed
- fluorescence in HEK-293 cells (five days post-transfection): Fluorescence was observed
